Source: PubChem BioAssay AID504744 (Drosophila RNAi Screening Center, 2011)
The screen tested about 23,000 reagents; shown is a random part of those that have a named target and a result. Over the whole deposit, 98 (0.43%) are marked active. 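Only hit calls are given; the phospho-dAkt signals, z-scores and hit direction were not deposited.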 The numbers tell different reagents against one gene apart. Names joined by + are all predicted targets of the reagent.

Screen: 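Identify dsRNAs that increase or decrease phospho-dAkt after insulin treatment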 (primary screen)
Cells: Drosophila Kc167 cells
Reagent: long dsRNA against Drosophila genes, 250 ng dsRNA per well of a 384-well plate
Duration: 3 days of knock-down, then overnight serum-free starvation before stimulation
Conditions: bovine insulin at 387 nM for 10 minutes after 12 h without serum
Measurement: 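In-cell antibody fluorescence for phospho-dAkt in each well over DNA-dye signal, with log2 residuals expressed as z-scores adjusted for cell count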
Hit rule: 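Under insulin, a gene counts as a hit if the average z-score of two replicates lies above 2.5 or below -2.5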

gene | reagent | activity call
Task7 | 1 | inactive
NC2alpha | 1 | inactive
CG14763 | 1 | inactive
PIG-X | 1 | inactive
CG13725 | 1 | inactive
Pli | 1 | inactive
odd | 1 | inactive
Synd | 1 | inactive
Raf | 1 | inactive
CG7179 | 1 | inactive
CG15548 | 1 | inactive
pio | 1 | inactive
CG13337 | 1 | inactive
CG7739 | 1 | inactive
CG3492 | 1 | inactive
Cpr47Ef | 1 | inactive
Cpr47Ef | 2 | inactive
CG5665 | 1 | inactive
Cpr78Cb | 1 | inactive
atilla | 1 | inactive
Ir8a | 1 | inactive
Ir8a | 2 | inactive
Sp1 | 1 | inactive
Sp1 | 2 | inactive
Rpn11 | 1 | inactive
Eig71Ej | 1 | inactive
Fas2 | 1 | inactive
Fas2 | 2 | inactive
Fas2 | 3 | inactive
CG2574 | 1 | inactive
CG17801 | 1 | inactive
cg | 1 | inactive
CR33319 | 1 | inactive
Peritrophin-15a | 1 | inactive
CG34348 | 1 | inactive
CG34348 | 2 | inactive
CG34447 | 1 | inactive
dlp | 1 | inactive
dlp | 2 | inactive
Alg12 | 1 | inactive
CG31627 | 1 | inactive
Ccdc114 | 1 | inactive
PEK | 1 | inactive
NimB5 | 1 | inactive
Gapvd1 | 1 | inactive
Usp30 | 1 | inactive
Septin1 | 1 | inactive
CG5623 | 1 | inactive
CG11668 | 1 | inactive
SMC2 | 1 | inactive
CG18586 | 1 | inactive
Apt1 | 1 | inactive
Klf15 | 1 | inactive
CG4650 | 1 | inactive
Dro | 1 | inactive
CG4751 | 1 | inactive
DJ-1alpha | 1 | inactive
TMEM216 | 1 | inactive
CG13920 | 1 | inactive
CG6878 | 1 | inactive
CG10801 | 1 | inactive
Drgx | 1 | inactive
Drgx | 2 | inactive
CG18788 | 1 | inactive
BomS5 | 1 | inactive
CG34187 (retired record) | 1 | inactive
CG14088 | 1 | inactive
SCAR | 1 | inactive
Ir48a | 1 | inactive
CG3323 | 1 | inactive
TppII | 1 | inactive
Cul1 | 1 | inactive
CG2247 | 1 | inactive
Twdlbeta | 1 | inactive
CG16790 | 1 | inactive
CG42246 | 1 | inactive
CG30156 | 1 | inactive
CG4853 | 1 | inactive
CG11808 | 1 | inactive
Cpr64Aa | 1 | inactive
BuGZ | 1 | inactive
BuGZ | 2 | inactive
Ir76b | 1 | inactive
Stim | 1 | inactive
nullo | 1 | inactive
Zyx | 1 | inactive
magu | 1 | inactive
CR42745 (retired record) | 1 | inactive
Nbr | 1 | inactive
CG11076 | 1 | inactive
Dpck | 1 | inactive
CAHbeta | 1 | inactive
CG14708 | 1 | inactive
CG11768 | 1 | inactive
CG12204 | 1 | inactive
CG12521 | 1 | inactive
CG33307 | 1 | inactive
CG32111 (retired record) | 1 | inactive
CG3592 | 1 | inactive
Ttc26 | 1 | inactive
dany | 1 | inactive
CG1722 | 1 | inactive
comt | 1 | inactive
Eig71Ek | 1 | inactive
Tep3 | 1 | inactive
Gr36a | 1 | inactive
Smyd4-4 | 1 | inactive
Ada3 | 1 | inactive
Ada3 | 2 | inactive
TTLL15 | 1 | inactive
Cph | 1 | inactive
Cph | 2 | inactive
CG17019 | 1 | inactive
CG32407 | 1 | inactive
CG13059 | 1 | inactive
Rab4 | 1 | inactive
SCCRO4 | 1 | inactive
gcm | 1 | inactive
CG6592 | 1 | inactive
beat-IIb | 1 | inactive
beat-IIb | 2 | inactive
beat-IIb | 3 | inactive
Sesn | 1 | inactive
Sesn | 2 | inactive
Sesn | 3 | inactive
CG11099 | 1 | inactive
HERC2 | 1 | inactive
lilli | 1 | inactive
Uba1 | 1 | inactive
CG18371 | 1 | inactive
Ns1 | 1 | inactive
CG5592 | 1 | inactive
shtd | 1 | inactive
Ugalt | 1 | inactive
Yif1 | 1 | inactive
TrpA1 | 1 | inactive
CG14367 | 1 | inactive
Seipin | 1 | inactive
NAT1 | 1 | inactive
CG31097 | 1 | inactive
CG6665 | 1 | inactive
CG10352 | 1 | inactive
CG18368 | 1 | inactive
CG3308 | 1 | inactive
dpn | 1 | inactive
topi | 1 | inactive
CG13581 | 1 | inactive
He + NimB5 | 1 | inactive
Amy-d | 1 | inactive
CheB42b | 1 | inactive
Fibp | 1 | inactive
Ipk1 | 1 | inactive
Ipk1 | 2 | inactive
Ipk1 | 3 | inactive
Nplp3 | 1 | inactive
CG7083 | 1 | inactive
Mur2B | 1 | inactive
Mur2B | 2 | inactive
akirin | 1 | inactive
CG6414 | 1 | inactive
CG7335 | 1 | inactive
CG7407 | 1 | inactive
CG11089 + CG31381 | 1 | inactive
CG11089 + CG31381 | 2 | inactive
Chd64 | 1 | inactive
CG15185 | 1 | inactive
NELF-B | 1 | inactive
CG3008 | 1 | inactive
CG9173 | 1 | inactive
CG32652 (retired record) | 1 | inactive
CG32652 (retired record) | 2 | inactive
CG6051 | 1 | inactive
CG33017 | 1 | inactive
CG33017 | 2 | inactive
Cds | 1 | inactive
Tao | 1 | inactive
Tao | 2 | inactive
Tao | 3 | inactive
JTBR | 1 | inactive
Crz | 1 | inactive
metro | 1 | inactive
metro | 2 | inactive
CG13324 | 1 | inactive
CG31515 | 1 | inactive
CG17982 | 1 | inactive
CG15653 | 1 | inactive
CG33268 | 1 | inactive
CG6761 | 1 | inactive
CG34302 | 1 | inactive
CG15754 | 1 | inactive
Mipp2 | 1 | inactive
Fcp1 | 1 | inactive
CG8353 | 1 | inactive
kraken | 1 | inactive
Snx21 | 1 | inactive
CG42588 | 1 | inactive
CG42588 | 2 | inactive
Cpr62Ba | 1 | inactive
Mdh1 (retired record) | 1 | inactive
Pgant7 | 1 | inactive

Targets listed so far whose gene name begins with M or m:
gene | reagent | activity call
magu | 1 | inactive
Mur2B | 1 | inactive
Mur2B | 2 | inactive
metro | 1 | inactive
metro | 2 | inactive
Mipp2 | 1 | inactive
Mdh1 (retired record) | 1 | inactive
